Experimental data taken from article PMC7239482.

Experiments:
[1] = biological target: T1, GST-SID-3(aa 1–370 K139A) (C. elegans) (UniProt Q10925); assay: pull-down; GST fusion on glutathione sepharose 4B beads; in vitro translated HA-tagged protein (15 μL TNT mix in 700 μL binding buffer) bound at 4°C overnight; washes in 50 mM Tris pH 8.0, 300 mM NaCl, 0.2% NP-40, 1 mM DTT; anti-HA blot; only the target purified
T1 sequence: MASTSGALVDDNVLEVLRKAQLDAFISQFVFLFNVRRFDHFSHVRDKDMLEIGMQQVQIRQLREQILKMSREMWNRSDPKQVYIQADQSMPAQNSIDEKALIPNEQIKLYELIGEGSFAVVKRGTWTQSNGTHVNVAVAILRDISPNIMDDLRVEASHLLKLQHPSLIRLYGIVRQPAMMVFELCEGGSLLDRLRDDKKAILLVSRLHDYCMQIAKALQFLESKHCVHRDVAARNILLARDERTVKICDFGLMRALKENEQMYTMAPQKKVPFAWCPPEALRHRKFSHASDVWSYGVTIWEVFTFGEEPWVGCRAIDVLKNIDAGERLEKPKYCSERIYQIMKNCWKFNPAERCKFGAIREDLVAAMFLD

[2] = biological target: T2, GST-SID-3(471-544aa) (C. elegans) (UniProt Q10925); assay: as above
T2 sequence: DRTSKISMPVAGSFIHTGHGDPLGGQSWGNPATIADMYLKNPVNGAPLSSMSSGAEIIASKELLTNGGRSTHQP

[3] = biological target: T3, GST-SID-3(369-471aa) (C. elegans) (UniProt Q10925); assay: as above
T3 sequence: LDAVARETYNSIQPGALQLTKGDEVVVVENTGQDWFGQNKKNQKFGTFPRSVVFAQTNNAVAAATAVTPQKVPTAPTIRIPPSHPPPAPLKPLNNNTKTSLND

[4] = biological target: T4, GST-SID-3 (C. elegans) (UniProt Q10925); assay: as above
T4 sequence: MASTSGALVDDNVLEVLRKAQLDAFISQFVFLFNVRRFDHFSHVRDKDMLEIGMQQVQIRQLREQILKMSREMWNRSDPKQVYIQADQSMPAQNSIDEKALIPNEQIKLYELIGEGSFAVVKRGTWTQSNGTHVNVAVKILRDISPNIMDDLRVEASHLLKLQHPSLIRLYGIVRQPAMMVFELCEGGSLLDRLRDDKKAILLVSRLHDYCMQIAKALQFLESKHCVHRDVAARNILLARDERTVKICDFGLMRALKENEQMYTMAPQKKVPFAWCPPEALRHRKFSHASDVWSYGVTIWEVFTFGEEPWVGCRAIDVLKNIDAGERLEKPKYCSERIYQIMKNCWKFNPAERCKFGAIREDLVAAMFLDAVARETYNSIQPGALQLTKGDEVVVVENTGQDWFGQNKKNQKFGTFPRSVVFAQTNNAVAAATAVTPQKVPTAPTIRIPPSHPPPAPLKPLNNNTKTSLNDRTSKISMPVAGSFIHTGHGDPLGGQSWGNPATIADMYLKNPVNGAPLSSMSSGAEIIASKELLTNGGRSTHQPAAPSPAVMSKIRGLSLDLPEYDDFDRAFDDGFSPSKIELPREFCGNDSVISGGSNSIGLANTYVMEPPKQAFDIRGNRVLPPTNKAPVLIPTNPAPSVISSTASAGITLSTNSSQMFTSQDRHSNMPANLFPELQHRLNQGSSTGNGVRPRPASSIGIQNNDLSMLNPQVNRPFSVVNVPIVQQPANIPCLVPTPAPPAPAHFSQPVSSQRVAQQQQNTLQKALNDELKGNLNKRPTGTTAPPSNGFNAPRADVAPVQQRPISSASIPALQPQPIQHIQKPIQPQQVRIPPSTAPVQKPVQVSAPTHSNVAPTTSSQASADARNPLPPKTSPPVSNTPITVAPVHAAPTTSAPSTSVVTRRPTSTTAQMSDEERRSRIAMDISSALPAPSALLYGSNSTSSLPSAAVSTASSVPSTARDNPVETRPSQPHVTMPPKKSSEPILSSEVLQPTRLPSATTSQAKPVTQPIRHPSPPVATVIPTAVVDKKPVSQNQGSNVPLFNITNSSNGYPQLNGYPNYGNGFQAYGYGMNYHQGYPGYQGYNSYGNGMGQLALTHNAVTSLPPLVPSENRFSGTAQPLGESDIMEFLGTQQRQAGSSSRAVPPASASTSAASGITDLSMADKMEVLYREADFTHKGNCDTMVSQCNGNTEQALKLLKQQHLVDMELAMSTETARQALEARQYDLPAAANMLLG

[5] = biological target: T5, GST-SID-3(aa 1–370) (C. elegans) (UniProt Q10925); assay: as above
T5 sequence: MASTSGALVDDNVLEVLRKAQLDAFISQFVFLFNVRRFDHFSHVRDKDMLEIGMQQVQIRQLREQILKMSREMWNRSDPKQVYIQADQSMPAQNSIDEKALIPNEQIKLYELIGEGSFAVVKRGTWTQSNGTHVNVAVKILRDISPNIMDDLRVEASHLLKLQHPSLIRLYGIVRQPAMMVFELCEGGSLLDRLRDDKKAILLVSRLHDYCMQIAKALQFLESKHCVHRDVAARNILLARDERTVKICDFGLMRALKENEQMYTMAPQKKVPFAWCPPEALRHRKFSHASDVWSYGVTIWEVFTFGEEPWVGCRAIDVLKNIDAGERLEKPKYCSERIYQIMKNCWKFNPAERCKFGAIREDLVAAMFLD

[6] = biological target: T6, GST-SID-3(aa 545–782) (C. elegans) (UniProt Q10925); assay: as above
T6 sequence: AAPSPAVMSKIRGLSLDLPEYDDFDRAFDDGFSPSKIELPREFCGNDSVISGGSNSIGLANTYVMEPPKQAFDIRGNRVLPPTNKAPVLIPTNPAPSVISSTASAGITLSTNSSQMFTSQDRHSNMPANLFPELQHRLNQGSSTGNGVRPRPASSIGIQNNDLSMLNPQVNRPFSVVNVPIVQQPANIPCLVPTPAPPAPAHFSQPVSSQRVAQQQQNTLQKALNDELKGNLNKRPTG

[7] = biological target: EHBP-1-GFP (C. elegans) (UniProt G5ECW3); assay: co-IP; whole-worm lysate of animals co-expressing SID-3-mCherry and EHBP-1-GFP (control: SID-3-mCherry only); GFP-Trap beads, 4°C, 6 hours; lysis buffer 25 mM Tris-HCl pH 7.5, 100 mM NaCl, 1 mM EDTA, 0.5% NP-40
[8] = biological target: GST-NCK-1 (C. elegans); assay: pull-down; GST fusion on glutathione sepharose 4B beads; in vitro translated HA-tagged protein (15 μL TNT mix in 700 μL binding buffer) bound at 4°C overnight; washes in 50 mM Tris pH 8.0, 300 mM NaCl, 0.2% NP-40, 1 mM DTT; anti-HA blot; only the target purified

binding [7]: binds
B1: SID-3-mCherry (protein, UniProt Q10925 1-1237)
chain: MASTSGALVDDNVLEVLRKAQLDAFISQFVFLFNVRRFDHFSHVRDKDMLEIGMQQVQIRQLREQILKMSREMWNRSDPKQVYIQADQSMPAQNSIDEKALIPNEQIKLYELIGEGSFAVVKRGTWTQSNGTHVNVAVKILRDISPNIMDDLRVEASHLLKLQHPSLIRLYGIVRQPAMMVFELCEGGSLLDRLRDDKKAILLVSRLHDYCMQIAKALQFLESKHCVHRDVAARNILLARDERTVKICDFGLMRALKENEQMYTMAPQKKVPFAWCPPEALRHRKFSHASDVWSYGVTIWEVFTFGEEPWVGCRAIDVLKNIDAGERLEKPKYCSERIYQIMKNCWKFNPAERCKFGAIREDLVAAMFLDAVARETYNSIQPGALQLTKGDEVVVVENTGQDWFGQNKKNQKFGTFPRSVVFAQTNNAVAAATAVTPQKVPTAPTIRIPPSHPPPAPLKPLNNNTKTSLNDRTSKISMPVAGSFIHTGHGDPLGGQSWGNPATIADMYLKNPVNGAPLSSMSSGAEIIASKELLTNGGRSTHQPAAPSPAVMSKIRGLSLDLPEYDDFDRAFDDGFSPSKIELPREFCGNDSVISGGSNSIGLANTYVMEPPKQAFDIRGNRVLPPTNKAPVLIPTNPAPSVISSTASAGITLSTNSSQMFTSQDRHSNMPANLFPELQHRLNQGSSTGNGVRPRPASSIGIQNNDLSMLNPQVNRPFSVVNVPIVQQPANIPCLVPTPAPPAPAHFSQPVSSQRVAQQQQNTLQKALNDELKGNLNKRPTGTTAPPSNGFNAPRADVAPVQQRPISSASIPALQPQPIQHIQKPIQPQQVRIPPSTAPVQKPVQVSAPTHSNVAPTTSSQASADARNPLPPKTSPPVSNTPITVAPVHAAPTTSAPSTSVVTRRPTSTTAQMSDEERRSRIAMDISSALPAPSALLYGSNSTSSLPSAAVSTASSVPSTARDNPVETRPSQPHVTMPPKKSSEPILSSEVLQPTRLPSATTSQAKPVTQPIRHPSPPVATVIPTAVVDKKPVSQNQGSNVPLFNITNSSNGYPQLNGYPNYGNGFQAYGYGMNYHQGYPGYQGYNSYGNGMGQLALTHNAVTSLPPLVPSENRFSGTAQPLGESDIMEFLGTQQRQAGSSSRAVPPASASTSAASGITDLSMADKMEVLYREADFTHKGNCDTMVSQCNGNTEQALKLLKQQHLVDMELAMSTETARQALEARQYDLPAAANMLLG

binding [8]: binds
B3: HA-DYN-1(aa 504–838) (domain or fragment, UniProt P39055-2 504-838)
chain: AKASQGQSAKKNLGNQVIRKGWLSLSNVSFVRGSKDNWFVLMSDSLSWYKDDEEKEKKYMLPLDGVKLKDIEGGFMSRNHKFALFYPDGKNIYKDYKQLELGCTNLDEIDAWKASFLRAGVYPEKQKAQEDESQQEMEDTSIDPQLERQVETIRNLVDSYMRIITKTIKDLVPKAVMHLIVNQTGEFMKDELLAHLYQCGDTDALMEESQIEAQKREEMLRMYHACKEALRIISEVNMSTLGDQPPPLPMSDYRPHPSGPSPVPRPAPAPPGGRQAPMPPRGGPGAPPPPGMRPPPGAPGGGGGMYPPLIPTRVPTPSNGAPEIPARPQVPKRPF

Continued, molecule first:

Molecule: HA-EHBP-1(aa 1–223) (C. elegans) (domain or fragment)
binding [1]: binds
binding [2]: no binding
binding [3]: no binding
binding [4]: binds
binding [5]: binds
binding [6]: binds

Molecule: HA-EHBP-1(aa 511–901) (C. elegans) (domain or fragment)
binding [4]: no binding

Molecule: HA-EHBP-1(aa 260–510) (C. elegans) (domain or fragment)
binding [4]: no binding

B2: HA-SID-3(aa 1–544) (domain or fragment, UniProt Q10925 1-544)
chain: MASTSGALVDDNVLEVLRKAQLDAFISQFVFLFNVRRFDHFSHVRDKDMLEIGMQQVQIRQLREQILKMSREMWNRSDPKQVYIQADQSMPAQNSIDEKALIPNEQIKLYELIGEGSFAVVKRGTWTQSNGTHVNVAVKILRDISPNIMDDLRVEASHLLKLQHPSLIRLYGIVRQPAMMVFELCEGGSLLDRLRDDKKAILLVSRLHDYCMQIAKALQFLESKHCVHRDVAARNILLARDERTVKICDFGLMRALKENEQMYTMAPQKKVPFAWCPPEALRHRKFSHASDVWSYGVTIWEVFTFGEEPWVGCRAIDVLKNIDAGERLEKPKYCSERIYQIMKNCWKFNPAERCKFGAIREDLVAAMFLDAVARETYNSIQPGALQLTKGDEVVVVENTGQDWFGQNKKNQKFGTFPRSVVFAQTNNAVAAATAVTPQKVPTAPTIRIPPSHPPPAPLKPLNNNTKTSLNDRTSKISMPVAGSFIHTGHGDPLGGQSWGNPATIADMYLKNPVNGAPLSSMSSGAEIIASKELLTNGGRSTHQP
binding [8]: binds

Results are given in words; binding and its absence hold for the method and conditions named. Binding seen in cells or lysates may run through a third protein. For some assays here: A result given as binding can be weak or reduced; the word gives no strength. For some assays here: Where a sequence is shown, tags or fusion partners need not be part of it. One block for each molecule: values may come before it.
